Data reported in article PMC8973849.
No constants are given. Whether binding was seen depends on the method and setting. Binding seen in cells or lysates may run through a third protein. Some entries that bind do so weakly or less than the wild type. Each block holds one molecule with its values, some of them ahead of it.

Chains of the proteins cited; added tags and fusions are not shown.
UniProt Q9EPU0: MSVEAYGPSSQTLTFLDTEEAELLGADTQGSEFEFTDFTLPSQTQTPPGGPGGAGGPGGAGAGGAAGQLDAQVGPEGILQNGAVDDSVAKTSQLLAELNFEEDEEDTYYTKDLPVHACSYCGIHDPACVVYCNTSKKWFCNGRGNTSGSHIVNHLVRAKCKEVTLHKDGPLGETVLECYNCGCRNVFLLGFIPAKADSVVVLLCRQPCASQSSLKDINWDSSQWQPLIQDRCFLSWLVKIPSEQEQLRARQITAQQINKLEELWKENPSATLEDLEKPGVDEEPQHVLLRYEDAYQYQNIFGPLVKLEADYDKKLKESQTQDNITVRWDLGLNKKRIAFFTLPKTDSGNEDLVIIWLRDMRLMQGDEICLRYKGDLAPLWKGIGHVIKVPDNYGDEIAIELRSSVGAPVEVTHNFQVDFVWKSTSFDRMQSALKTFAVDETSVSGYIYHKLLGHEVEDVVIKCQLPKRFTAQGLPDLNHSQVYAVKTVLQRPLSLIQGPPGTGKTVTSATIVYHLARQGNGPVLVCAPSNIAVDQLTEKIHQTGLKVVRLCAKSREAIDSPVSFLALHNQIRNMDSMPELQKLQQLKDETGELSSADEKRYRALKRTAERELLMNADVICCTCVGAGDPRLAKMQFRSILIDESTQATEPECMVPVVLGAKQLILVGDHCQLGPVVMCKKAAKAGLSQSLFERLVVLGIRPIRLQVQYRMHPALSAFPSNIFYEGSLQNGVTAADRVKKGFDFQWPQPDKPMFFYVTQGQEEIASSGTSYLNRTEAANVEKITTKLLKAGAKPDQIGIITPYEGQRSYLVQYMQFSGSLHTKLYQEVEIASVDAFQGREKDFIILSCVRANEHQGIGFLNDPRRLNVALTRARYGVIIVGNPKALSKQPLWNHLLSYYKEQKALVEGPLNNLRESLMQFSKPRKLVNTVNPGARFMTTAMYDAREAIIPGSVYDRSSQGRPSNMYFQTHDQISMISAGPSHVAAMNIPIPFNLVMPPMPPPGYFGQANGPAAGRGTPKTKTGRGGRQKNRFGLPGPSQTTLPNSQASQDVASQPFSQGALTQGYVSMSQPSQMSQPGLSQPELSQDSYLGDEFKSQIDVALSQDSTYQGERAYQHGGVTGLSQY

Biological target: T1, SMG7 (mouse (endogenous in ESCs)) (UniProt Q5RJH6)
T1 sequence: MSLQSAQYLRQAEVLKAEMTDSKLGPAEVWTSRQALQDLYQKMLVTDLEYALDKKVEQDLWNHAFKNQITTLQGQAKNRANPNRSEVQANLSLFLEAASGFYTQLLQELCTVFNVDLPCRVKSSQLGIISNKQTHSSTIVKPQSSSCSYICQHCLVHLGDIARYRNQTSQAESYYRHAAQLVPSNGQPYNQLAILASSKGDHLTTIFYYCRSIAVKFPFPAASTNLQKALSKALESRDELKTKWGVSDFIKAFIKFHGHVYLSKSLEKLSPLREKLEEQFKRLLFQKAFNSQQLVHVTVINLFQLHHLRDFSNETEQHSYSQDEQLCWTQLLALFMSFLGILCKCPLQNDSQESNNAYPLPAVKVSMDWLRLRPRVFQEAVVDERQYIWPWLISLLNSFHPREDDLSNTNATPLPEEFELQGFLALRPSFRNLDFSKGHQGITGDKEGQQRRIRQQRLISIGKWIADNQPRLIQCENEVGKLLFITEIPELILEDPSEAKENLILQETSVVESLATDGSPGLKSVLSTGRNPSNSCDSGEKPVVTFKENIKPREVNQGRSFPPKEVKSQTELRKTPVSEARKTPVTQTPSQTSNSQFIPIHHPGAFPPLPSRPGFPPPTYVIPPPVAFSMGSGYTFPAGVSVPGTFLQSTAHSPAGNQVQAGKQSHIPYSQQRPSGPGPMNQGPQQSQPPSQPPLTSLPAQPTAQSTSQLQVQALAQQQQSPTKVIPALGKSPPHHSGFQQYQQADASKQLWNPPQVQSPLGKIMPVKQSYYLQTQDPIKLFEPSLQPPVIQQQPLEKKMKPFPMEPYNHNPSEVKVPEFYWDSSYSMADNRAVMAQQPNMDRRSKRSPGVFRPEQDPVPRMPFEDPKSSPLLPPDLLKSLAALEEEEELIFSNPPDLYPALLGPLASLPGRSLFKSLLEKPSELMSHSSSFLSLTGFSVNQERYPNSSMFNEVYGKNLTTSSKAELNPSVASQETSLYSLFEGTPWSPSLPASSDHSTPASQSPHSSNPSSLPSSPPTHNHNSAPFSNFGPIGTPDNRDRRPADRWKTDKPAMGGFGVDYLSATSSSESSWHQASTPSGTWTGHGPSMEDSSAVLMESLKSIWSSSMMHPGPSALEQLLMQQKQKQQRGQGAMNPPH
Assay: co-IP; SMG7 or 3xFlag-SMG5 (anti-Flag M2 on Dynabeads) precipitated from 1 mg ESC lysate after cyanase-mediated nucleic acid removal; 150 mM NaCl, 3 h at 4°C; Western blot; WT, Smg5 KO, Smg5/Smg6 dKO and Smg5 Flag rescue-based lines

- binding: binds
Molecule: Phosphorylated UPF1 (from UniProt Q9EPU0 1-1124)

- binding: binds
B1: SMG5 (protein, UniProt Q6ZPY2 1-1017)
chain: MSQGPPPGESSEPEAKVLHTKRLYRAVVEAVHRLDLILCNKAAYQEVFKPENVSLRNKLRELCVKLMFLHPVDYGRKAEELLWRKVYYEVIQLIKTNKKHIHSRSTLECAYRTHLVAGIGFYQHLLLYIQSHYQLELQCCIDWTHVTDPLMGFKKPVSASGKEMDWAQMACHRCLVYLGDLSRYQNELAGVDTELLAERFYYQALSVAPQIGMPFNQLGTLAGSKYYNVEAMYCYLRCIQSEVSFEGAYGNLKRLYDKAAKMYHQLKKSETRKLSPSKKRCKDIKRLLVNFMYLQSLLQPKSSSVDSELTSLCQSVLEDFNLCLFYLPSSPNLGLTNEDEEECESGYAFLPDLLIFQMAIICLMGVHSLKRAGSKHYSAAIAFTLALFSHLINHVNIRLQAELEEGENPVSAFQSDGTDEPESKEALEKEEPEPEPPTVVPQADEGRKSRKHSRLSCLRRRRRHHPPKAGDDSDLSEGFESDSSHDSAQASDGSDSGSDKSLEGRGTAFDAETDSEMNSQESRSDLEDMEDEEGTRSPAQEPPQARSEVPDSLNGPLGPSEASIASNLQAMSTQMFQTKRCFRLAPTFSNLLLQPTTEPNSVASHRPCVNGDMDKPLEPASEDGSESEGSESSNRSCRNERSLQEKLQALMAEGLLPAVKVFLDWLRTNPDLIIVCAQSSQSLWNRLSVLLNLLPASAELQDSGLALCSEVQGLLEGCELPDLPASLLLPEDMALRNLPPLRAAHRRFNFDADRPLLSALEESVVRICCIRSFGHFVARLQGSILQFNPEVGIFVSIAQSEQESLLQQAQAQFRMAEEEARRNRLMRDMAQLRLQLEVSQLEGSLQQPKAQSAMSPYLIPDTQALCYHLPLIRQLATSGRFIIIIPRTVIDGLDLLKKEQPGARDGIRYLEAEFKKGNRYIRCQKEVGKSFERHKLKRQDADAWTLYKILDSCRQLTLAQGAGEEDPSGMVTIITGLHLDSPSALSGPMQAALQAAAHASVDVKNVLDFYRQWKEIG
